Laboratory results: PubChem BioAssay AID1224827 (NIAID, 2016)
Shown is an unselected part of about 3,800 deposited reagents. Of all reagents, about 2,200 (57%) were called active. 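Active means a strong reporter change in either direction; calls are per siRNA, not per gene; qiagen siRNAs gave weaker effects.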 A number with no mark means an inactive call. The numbers tell different reagents against one gene apart. Further read-outs or replicates are left out here. No sequences are given here.

Test: 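Retest primary hits on a TNF reporter with six siRNAs per gene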 (follow-up of hits)
Cell system: RAW264.7 G9 mouse macrophage reporter clone
Reagent: single siRNA against mouse genes, 100 nM siRNA
Timing: siRNA for 2 days, then LPS about 16 h
Conditions: bacterial lipopolysaccharide (LPS), 10 ng/ml, cells fixed after overnight (about 16 h) stimulation
Read-out: 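TNF promoter reporter red fluorescence in nuclei, background subtracted, normalised per plate and to non-targeting control siRNA, as z-scores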
Direction: TNF reporter z-score, mean and TNF reporter z-score: higher = stronger Tnf promoter reporter signal; gene median z, three same-vendor siRNAs: higher = stronger Tnf reporter signal for the gene
Call rule: 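Active siRNA: replicate-mean z-score of 2 or more, or -2 or less; no calls for control wells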

no.	gene	siRNA no.	TNF reporter z-score, mean	gene median z, three same-vendor siRNAs	TNF reporter z-score, repeat 1
1	Frey1	1	-0.138	-4.84	-1.09
2	Frey1	2	-4.84 (active)	-4.84	-4.38
3	Frey1	3	-5.8 (active)	-4.84	-5.79
4	Ica1l	1	1.76	-3.71	0.253
5	Ica1l	2	-4.23 (active)	-3.71	-4.3
6	Ica1l	3	-4.29 (active)	-3.71	-3.25
7	Ica1l	4	2.53 (active)	1.03	4.38
8	Ica1l	5	1.87	1.03	2.56
9	Ica1l	6	-0.0554	1.03	0.872
10	Ap2m1	1	4.32 (active)	-2.74	4.48
11	Ap2m1	2	-2.74 (active)	-2.74	-2.84
12	Ap2m1	3	-3.61 (active)	-2.74	-4.26
13	Ap2m1	4	5.69 (active)	-0.501	9
14	Ap2m1	5	-0.501	-0.501	0.882
15	Ap2m1	6	-3.48 (active)	-0.501	-3.89

Quoted from the listing (4 entries):
no.	gene	siRNA no.	TNF reporter z-score, mean	gene median z, three same-vendor siRNAs	TNF reporter z-score, repeat 1
2	Frey1	2	-4.84 (active)	-4.84	-4.38
3	Frey1	3	-5.8 (active)	-4.84	-5.79
4	Ica1l	1	1.76	-3.71	0.253
5	Ica1l	2	-4.23 (active)	-3.71	-4.3

The results go on.
no.	gene	siRNA no.	TNF reporter z-score, mean	gene median z, three same-vendor siRNAs	TNF reporter z-score, repeat 1
16	Tbx21	1	3.73 (active)	2.48	3.49
17	Tbx21	2	2.48 (active)	2.48	2.46
18	Tbx21	3	2	2.48	2.45
19	Tbx21	4	0.391	-2.03	0.521
20	Tbx21	5	-2.03 (active)	-2.03	-1.66
21	Tbx21	6	-3.45 (active)	-2.03	-3.37
22	Trim67	1	1.56	-1.83	1.64
23	Trim67	2	-1.83	-1.83	-2.99
24	Trim67	3	-3.84 (active)	-1.83	-3.73
25	Trim67	4	0.27	-0.785	1.24
26	Trim67	5	0.436	-0.785	2.57
27	Trim67	6	-1.22	-0.785	-0.872
28	5830411J07Rik	1	1.42	-1.42	4.26
29	5830411J07Rik	2	0.29	-1.42	2
30	5830411J07Rik	3	-2.63 (active)	-1.42	-1.89
31	2810032G03Rik	1	-1.63	-3.84	-1.17
32	2810032G03Rik	2	-3.84 (active)	-3.84	-3.37
33	2810032G03Rik	3	-5.11 (active)	-3.84	-5.08
34	2810032G03Rik	4	1.38	-1.12	2.73
35	2810032G03Rik	5	-1.81	-1.12	0.106
36	2810032G03Rik	6	-2.43 (active)	-1.12	-2.58
37	Cacna1d	1	-0.849	-3.72	-1.54
38	Cacna1d	2	-3.72 (active)	-3.72	-4.15
39	Cacna1d	3	-4.81 (active)	-3.72	-4.35
40	Cacna1d	4	1.1	-1.73	2.27
41	Cacna1d	5	-1.93	-1.73	-2.15
42	Cacna1d	6	-1.96	-1.73	-2.17
